Laboratory results as given in paper PMC1087506.
These are yes or no findings as the source states them, for the method shown. Some results given as binding are weak or reduced against the parent protein; the word gives no strength.

The chains behind the UniProt entries cited, without tags or fusion partners. Residues count along the entry.
UniProt Q04206: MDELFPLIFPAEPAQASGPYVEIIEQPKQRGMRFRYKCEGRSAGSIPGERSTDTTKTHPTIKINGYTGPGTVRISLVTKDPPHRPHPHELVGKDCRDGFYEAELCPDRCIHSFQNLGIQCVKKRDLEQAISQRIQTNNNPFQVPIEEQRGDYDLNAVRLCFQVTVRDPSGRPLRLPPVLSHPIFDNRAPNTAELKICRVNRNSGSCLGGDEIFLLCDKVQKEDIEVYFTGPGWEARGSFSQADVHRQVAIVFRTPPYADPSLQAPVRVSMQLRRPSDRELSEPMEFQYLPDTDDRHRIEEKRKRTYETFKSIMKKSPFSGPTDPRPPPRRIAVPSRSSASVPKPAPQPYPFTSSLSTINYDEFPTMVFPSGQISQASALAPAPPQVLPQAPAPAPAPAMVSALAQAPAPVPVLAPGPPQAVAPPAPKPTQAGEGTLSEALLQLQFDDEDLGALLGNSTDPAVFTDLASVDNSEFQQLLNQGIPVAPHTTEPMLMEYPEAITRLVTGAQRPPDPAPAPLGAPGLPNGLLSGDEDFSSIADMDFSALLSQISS
UniProt P19838, residues 1-433: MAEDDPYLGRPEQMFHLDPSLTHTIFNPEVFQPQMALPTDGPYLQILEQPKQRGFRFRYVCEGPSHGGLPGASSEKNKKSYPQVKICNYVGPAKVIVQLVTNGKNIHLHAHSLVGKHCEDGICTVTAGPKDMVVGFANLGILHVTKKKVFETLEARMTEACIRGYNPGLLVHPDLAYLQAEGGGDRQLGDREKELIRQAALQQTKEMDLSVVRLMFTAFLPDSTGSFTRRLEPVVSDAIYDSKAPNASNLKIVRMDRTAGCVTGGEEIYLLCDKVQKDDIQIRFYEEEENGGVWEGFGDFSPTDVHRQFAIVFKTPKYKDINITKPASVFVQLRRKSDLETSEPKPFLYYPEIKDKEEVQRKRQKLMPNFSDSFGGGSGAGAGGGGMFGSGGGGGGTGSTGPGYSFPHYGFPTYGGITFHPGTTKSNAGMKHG

Biological target: NF-κB p65 subunit (human (endogenous in hTBE cells)) (UniProt Q04206)
Assay: native gel or EMSA; supershift: 2.5 μg nuclear extract of hTBE cells (2 hours after TSB or Ps. a. challenge) preincubated 10 minutes with antisera against NF-κB p50 or p65, then 32P-labelled NF-κB consensus oligonucleotide, 20 minutes at room temperature; 10 mM TrisHCl pH 7.9, 50 mM KCl, 1 mM DTT, 0.25 mg/ml BSA, 4% glycerol; 5% non-denaturing gel

binding: binds
Substance: NF-κB p50 subunit (from UniProt P19838 1-433)
